# Results as given in PMC5589935.
# By UniProt entry, the sequences of proteins in these tests, tags left out.
# UniProt Q9GZT9: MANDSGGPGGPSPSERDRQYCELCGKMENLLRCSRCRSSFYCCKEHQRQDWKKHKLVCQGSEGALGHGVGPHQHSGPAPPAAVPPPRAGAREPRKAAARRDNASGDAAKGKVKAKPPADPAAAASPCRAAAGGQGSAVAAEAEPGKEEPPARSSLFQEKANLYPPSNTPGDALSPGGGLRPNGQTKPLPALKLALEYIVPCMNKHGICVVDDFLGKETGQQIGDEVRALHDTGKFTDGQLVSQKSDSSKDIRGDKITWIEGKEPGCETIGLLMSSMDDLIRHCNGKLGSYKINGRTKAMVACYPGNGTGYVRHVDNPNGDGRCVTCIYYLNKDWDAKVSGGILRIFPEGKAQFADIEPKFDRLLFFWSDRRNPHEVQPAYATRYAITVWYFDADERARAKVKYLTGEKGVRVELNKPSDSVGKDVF
# UniProt Q92769: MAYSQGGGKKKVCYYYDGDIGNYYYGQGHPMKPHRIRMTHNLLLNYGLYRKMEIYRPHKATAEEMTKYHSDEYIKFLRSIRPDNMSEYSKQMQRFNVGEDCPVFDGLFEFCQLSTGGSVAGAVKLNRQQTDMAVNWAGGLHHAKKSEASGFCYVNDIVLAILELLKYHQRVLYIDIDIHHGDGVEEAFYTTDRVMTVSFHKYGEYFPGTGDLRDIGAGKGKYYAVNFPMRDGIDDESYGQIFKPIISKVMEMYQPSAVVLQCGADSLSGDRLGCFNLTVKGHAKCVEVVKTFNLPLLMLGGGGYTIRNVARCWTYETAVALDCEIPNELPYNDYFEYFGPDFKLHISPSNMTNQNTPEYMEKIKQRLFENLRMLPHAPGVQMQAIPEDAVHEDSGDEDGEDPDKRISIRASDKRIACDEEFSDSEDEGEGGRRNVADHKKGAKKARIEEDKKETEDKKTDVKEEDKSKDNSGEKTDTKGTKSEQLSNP
# UniProt Q9UGP4: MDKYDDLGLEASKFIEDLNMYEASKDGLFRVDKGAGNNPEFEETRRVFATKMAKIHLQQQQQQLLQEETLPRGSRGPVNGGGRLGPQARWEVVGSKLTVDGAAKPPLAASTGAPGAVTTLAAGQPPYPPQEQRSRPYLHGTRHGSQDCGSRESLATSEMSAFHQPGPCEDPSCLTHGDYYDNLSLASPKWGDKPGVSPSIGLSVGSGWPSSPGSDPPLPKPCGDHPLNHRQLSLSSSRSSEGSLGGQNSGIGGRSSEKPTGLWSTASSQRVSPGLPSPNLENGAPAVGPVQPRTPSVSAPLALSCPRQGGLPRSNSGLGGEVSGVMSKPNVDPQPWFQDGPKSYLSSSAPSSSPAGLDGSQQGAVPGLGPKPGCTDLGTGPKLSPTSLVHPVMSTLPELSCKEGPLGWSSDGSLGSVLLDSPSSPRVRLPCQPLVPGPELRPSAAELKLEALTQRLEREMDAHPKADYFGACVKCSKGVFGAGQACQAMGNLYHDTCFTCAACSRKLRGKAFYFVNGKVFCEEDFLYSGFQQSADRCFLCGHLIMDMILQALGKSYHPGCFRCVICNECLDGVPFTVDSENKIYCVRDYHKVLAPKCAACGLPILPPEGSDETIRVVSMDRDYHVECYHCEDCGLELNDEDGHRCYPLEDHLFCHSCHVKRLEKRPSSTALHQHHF
# UniProt Q15365: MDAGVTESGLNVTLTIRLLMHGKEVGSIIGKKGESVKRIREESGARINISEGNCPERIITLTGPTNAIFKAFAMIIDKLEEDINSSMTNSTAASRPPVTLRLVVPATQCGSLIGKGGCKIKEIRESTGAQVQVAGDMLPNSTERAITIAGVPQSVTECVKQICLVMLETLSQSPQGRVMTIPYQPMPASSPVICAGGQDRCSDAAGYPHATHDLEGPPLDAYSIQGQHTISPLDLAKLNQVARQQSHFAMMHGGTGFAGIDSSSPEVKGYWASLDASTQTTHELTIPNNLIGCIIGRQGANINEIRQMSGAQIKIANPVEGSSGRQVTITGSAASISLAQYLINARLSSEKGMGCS
# Results are given in words; binding and its absence hold for the method and conditions named. In cells and extracts the contact can be indirect. Some results given as binding are weak or reduced against the parent protein; the word gives no strength.
# Key:
# [1] = biological target: PHD2 (human (endogenous in A2058)) (UniProt Q9GZT9); experiment: co-IP; endogenous proteins of A2058 cell lysates, cells treated with ADI for various times (also with the antioxidant TEMPO, which inhibited the ADI-induced interaction); antibody and protein A sepharose, Western blot
# HDAC2-Flag = HDAC2-Flag (UniProt Q92769); experiment: co-IP; 293 cells cotransfected with recombinants encoding HDAC2-Flag and PHD2-GFP
# [2] = biological target: HDAC2 (human (endogenous in A2058)) (UniProt Q92769); experiment: co-IP; endogenous proteins of A2058 cell lysates, cells treated with ADI for various times (also with the antioxidant TEMPO, which inhibited the ADI-induced interaction); antibody and protein A sepharose, Western blot
Substance,binding [1],other results
LIMD1 (from UniProt Q9UGP4 1-676),binds,
PHD2-GFP (from UniProt Q9GZT9 1-426) (enzyme),,binding (HDAC2-Flag): binds
PHD2 (from UniProt Q9GZT9 1-426) (enzyme),,binding [2]: binds

# Now from value to substance, other results behind:
binding [1],Substance,other results
binds,PCBP1 (from UniProt Q15365 1-356),
binds,HDAC2 (from UniProt Q92769 1-488) (enzyme),
